# In paper PMC6204060:
# Protein sequences, listed by entry. Tags and fused reporters are not part of them.
# UniProt Q38931: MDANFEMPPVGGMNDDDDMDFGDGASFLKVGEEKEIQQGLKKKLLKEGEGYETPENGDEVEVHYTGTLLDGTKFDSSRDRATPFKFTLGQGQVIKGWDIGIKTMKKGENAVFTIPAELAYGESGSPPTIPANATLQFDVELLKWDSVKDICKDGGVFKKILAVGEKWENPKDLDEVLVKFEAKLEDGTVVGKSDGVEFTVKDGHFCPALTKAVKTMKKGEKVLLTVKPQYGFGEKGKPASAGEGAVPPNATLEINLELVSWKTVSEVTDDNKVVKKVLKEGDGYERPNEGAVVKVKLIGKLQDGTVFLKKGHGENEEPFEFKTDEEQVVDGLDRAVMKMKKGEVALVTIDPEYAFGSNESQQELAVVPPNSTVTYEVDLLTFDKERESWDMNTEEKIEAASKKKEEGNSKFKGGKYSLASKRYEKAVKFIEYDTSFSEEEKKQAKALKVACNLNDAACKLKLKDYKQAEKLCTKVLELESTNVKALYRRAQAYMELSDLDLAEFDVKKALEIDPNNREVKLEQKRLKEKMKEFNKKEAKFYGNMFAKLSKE
# No constants are given. Whether binding was seen depends on the method and setting. Sequences can lack the tags named with a protein.
# Molecular target: T1, BD-AtBI-1 (full-length Arabidopsis Bax inhibitor-1 in pGBKT7) (Arabidopsis (Arabidopsis thaliana)) (UniProt Q9LD45)
# T1 sequence: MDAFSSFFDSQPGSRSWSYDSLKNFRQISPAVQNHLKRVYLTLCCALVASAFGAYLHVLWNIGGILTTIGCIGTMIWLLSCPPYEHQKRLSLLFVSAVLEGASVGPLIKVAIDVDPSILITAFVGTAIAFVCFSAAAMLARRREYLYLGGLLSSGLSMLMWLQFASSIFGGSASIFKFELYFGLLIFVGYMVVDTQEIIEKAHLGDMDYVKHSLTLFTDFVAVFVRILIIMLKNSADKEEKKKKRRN
# Assay: two-hybrid; pairs of BD (pGBKT7) and AD (pGADT7) fusions coexpressed in AH109 yeast cells; selected on SD/-Trp-Leu-His-Ade or SD/-Trp-Leu-His-Ade/X-alpha-gal medium for 5 days
substance,measurement,value
AD-ROF1 (full-length Arabidopsis AtFKBP62 in pGADT7) (from UniProt Q38931 1-551),binding,no binding
